{"source": "paper PMC12010877", "test_system": "MBP-CsMYB77 (Camellia sinensis)", "assay": "EMSA", "conditions": "6% polyacrylamide gel, TBE running buffer, pH and temperature not stated, recombinant protein, protein details: MBP (pMAL-c6T)", "note": "The exact form of at least one protein or probe is not confirmed.", "data": [{"sequence": "GTTAAAATGGATAAGAATGTAACAGTTGACAAAAATAAAAAATTGAGCAT (double strand) [CsPOD44 promoter probe]", "values": [{"measurement": "binding result", "result": "binds"}]}]}
